Experiment: Hair moisture uptake by Dynamic Vapor Sorption (DVS)
Settings: 37° C., 50% active solution

Compound: OCC(O)CO [Glycerin, glycerin]
- Percent moisture uptake by DVS analysis (4 Hour @ 85% RH, blank (water) 13.58%): 22.10%
- Percent moisture uptake by DVS analysis (20 Hour @ 85% RH, blank (water) 14.53%): 44.58%

Source: patent US7816310B2, “Increased moisturization efficacy using hydroxyalkylurea and ammonium lactate” (Akzo Nobel N.V., priority 2003, dated 2010)
